{"sequences": {"note": "Protein sequences, listed by entry. Tags and fused reporters are not part of them. Lines headed by an entry give the natural chain unless they say otherwise; changes in a name come on top.", "UniProt P28223, whole entry, looked up": "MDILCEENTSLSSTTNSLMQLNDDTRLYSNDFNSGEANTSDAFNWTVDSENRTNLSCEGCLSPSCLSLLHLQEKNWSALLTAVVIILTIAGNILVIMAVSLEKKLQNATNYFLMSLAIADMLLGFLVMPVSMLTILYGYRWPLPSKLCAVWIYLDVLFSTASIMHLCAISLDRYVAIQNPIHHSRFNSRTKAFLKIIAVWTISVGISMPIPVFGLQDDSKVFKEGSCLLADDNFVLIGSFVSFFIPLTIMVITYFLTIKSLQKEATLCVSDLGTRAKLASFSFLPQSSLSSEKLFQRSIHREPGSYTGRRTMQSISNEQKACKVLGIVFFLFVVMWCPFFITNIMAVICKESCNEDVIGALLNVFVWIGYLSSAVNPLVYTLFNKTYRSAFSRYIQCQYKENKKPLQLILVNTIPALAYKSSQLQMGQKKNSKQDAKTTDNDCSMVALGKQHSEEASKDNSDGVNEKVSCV", "UniProt P11229": "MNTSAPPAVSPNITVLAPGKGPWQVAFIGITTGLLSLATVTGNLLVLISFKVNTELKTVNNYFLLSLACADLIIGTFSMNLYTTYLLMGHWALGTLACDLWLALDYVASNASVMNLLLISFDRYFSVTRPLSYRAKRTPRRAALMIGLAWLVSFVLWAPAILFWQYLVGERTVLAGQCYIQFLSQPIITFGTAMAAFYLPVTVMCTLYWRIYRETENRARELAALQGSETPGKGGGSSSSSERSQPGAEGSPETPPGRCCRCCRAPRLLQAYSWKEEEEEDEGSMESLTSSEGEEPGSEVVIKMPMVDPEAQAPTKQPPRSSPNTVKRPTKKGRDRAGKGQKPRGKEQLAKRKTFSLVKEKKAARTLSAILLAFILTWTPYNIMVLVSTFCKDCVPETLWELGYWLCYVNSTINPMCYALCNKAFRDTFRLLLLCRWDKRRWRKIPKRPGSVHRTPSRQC", "UniProt P14416, whole entry, looked up": "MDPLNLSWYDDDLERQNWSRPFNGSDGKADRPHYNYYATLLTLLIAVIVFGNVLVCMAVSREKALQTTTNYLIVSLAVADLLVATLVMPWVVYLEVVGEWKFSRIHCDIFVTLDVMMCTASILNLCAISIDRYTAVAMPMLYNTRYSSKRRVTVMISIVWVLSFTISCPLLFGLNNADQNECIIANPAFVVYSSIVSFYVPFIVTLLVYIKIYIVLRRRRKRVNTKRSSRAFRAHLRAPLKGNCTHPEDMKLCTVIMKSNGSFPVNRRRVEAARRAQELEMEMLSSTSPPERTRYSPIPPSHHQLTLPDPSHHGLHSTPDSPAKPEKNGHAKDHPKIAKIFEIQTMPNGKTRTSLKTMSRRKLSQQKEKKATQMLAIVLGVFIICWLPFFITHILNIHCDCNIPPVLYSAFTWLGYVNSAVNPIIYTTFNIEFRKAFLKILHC"}, "source": "PubChem BioAssay (Tox21)", "key": {"[1]": {"test": "Nuclear factor erythroid 2-related factor 2/antioxidant responsive element (Nrf2/ARE) small molecule agonists: luciferase reporter gene qHTS assay in human keratinocytes (AID 1919969); further: nearly all actives have a fitted effect of over 35% in size; further: potency means the concentration at half of the fitted maximal effect; on activity, positive = activation: on the % scale 0 is the no-effect control and ±100 the full control effect", "conditions": "KeratinoSens HaCaT ARE-luciferase, luminescence, 24 h; activity, positive = activation: at 92.4 µM (top of the series)"}, "[2]": {"target": "5-hydroxytryptamine receptor 2A (Homo sapiens) (UniProt P28223)", "test": "5-hydroxytryptamine receptor 2A (HTR2A) small molecule agonists, cell-based qHTS assay (AID 1963587); further: nearly all actives have a fitted effect of over 30% in size; further: potency means the concentration at half of the fitted maximal effect; on activation: on the % scale 0 is the no-effect control and ±100 the full control effect", "in_short": "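CHO cells stably expressing human HTR2A, plated 18 h, loaded with calcium dye 1 h at 37 C. Agonist mode: compounds added and intracellular calcium fluorescence recorded kinetically for 2 min at 1 sec intervals.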"}, "[3]": {"target": "Muscarinic acetylcholine receptor M1 (Homo sapiens) (UniProt P11229)", "test": "Cholinergic receptor muscarinic 1 (CHRM1) small molecule antagonists, cell-based qHTS assay (AID 1963588); further: nearly all actives have a fitted effect of over 40% in size; further: potency means the concentration at half of the fitted maximal effect", "in_short": "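CHRM1-CHO calcium-flux assay, antagonist mode. Cells were seeded 18 h, dye-loaded 1 h at 37 C and given compound for 5 min at RT, then acetylcholine was added at 50nM. FDSS fluorescence was read 3 min; 15 concentrations, three runs.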"}, "[4]": {"test": "cAMP Responsive Elements (CRE) small molecule agonists, cell-based qHTS assay (AID 1963590); further: potency means the concentration at half of the fitted maximal effect; on activation: on the % scale 0 is the no-effect control and ±100 the full control effect", "conditions": "CRE-bla HEK293T, beta-lactamase FRET ratio, 3 h; activation: at 92.4 µM (top of the series) unless noted", "in_short": "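FRET-based beta-lactamase readout (LiveBLAzer B/G, 2 h RT) quantified CRE activation in HEK 293T CRE-bla cells after 3 h treatment with DMSO-dissolved compounds.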"}, "[5]": {"target": "Beta-2 adrenergic receptor (Homo sapiens) (UniProt P07550)", "test": "Adrenergic beta2 receptor (ADRB2) small molecule agonists, cell-based qHTS assay (AID 1963593); further: potency means the concentration at half of the fitted maximal effect; on activation: on the % scale 0 is the no-effect control and ±100 the full control effect", "conditions": "CHO-ADRB2 cells, cAMP HTRF, 30 min", "in_short": "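CHO cells stably over-expressing ADRB2 were plated overnight at 37C, then dosed with compounds plus a stimulation mix containing 100uM IBMX and 25uM Ro-20-1724 for 0.5hr at room temperature. cAMP was measured by HTRF competition, 1hr.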"}, "[6]": {"target": "5-hydroxytryptamine receptor 2A (Homo sapiens) (UniProt P28223)", "test": "5-hydroxytryptamine receptor 2A (HTR2A) small molecule antagonists, cell-based qHTS assay (AID 1963586); further: nearly all actives have a fitted effect of over 45% in size; further: potency means the concentration at half of the fitted maximal effect", "in_short": "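Antagonist-mode intracellular calcium assay: DOI (4 nM) added after 5 min compound pre-incubation at room temperature to dye-loaded HTR2A-CHO cells. Fluorescence followed for 3 min, sampled every second.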"}, "[7]": {"test": "cAMP Responsive Elements (CRE) small molecule antagonists, cell-based qHTS assay (AID 1963591; active means well fitted inhibition curve with a large enough effect in the signal ratio in the repeat runs, not every such curve was filed as active; inconclusive means weak or mixed curves, or effect the other way; the % refers to the signal ratio; further: potency means the concentration at half of the fitted maximal effect)", "conditions": "CRE-bla HEK293T, beta-lactamase FRET ratio", "in_short": "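qHTS in CRE-bla HEK 293T cells: compound in DMSO, then 0.25 uM NKH477 (final), 3 h at 37 °C/5% CO2; beta-lactamase FRET read-out after 2 h substrate incubation.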"}, "[8]": {"target": "D(2) dopamine receptor (Homo sapiens) (UniProt P14416)", "test": "Dopamine D2 receptor (DRD2) small molecule antagonists, cell-based qHTS assay (AID 1963595; active means well fitted inhibition curve with a large enough effect in the signal ratio in the repeat runs, with a control signal flat; inconclusive means weak or mixed curves, or effect the other way; the % refers to the signal ratio; further: potency means the concentration at half of the fitted maximal effect)", "conditions": "HEK293-DRD2 cAMP HTRF antagonist mode; activity change, negative = inhibition: at 92.4 µM (top of the series) unless noted", "in_short": "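HEK293 cells stably expressing DRD2 were preincubated with 0.1 mM Ro20-1724, then with compound for 10 min at room temperature. Cells were stimulated with 200 nM NKH477 plus 12 nM quinpirole for 30 min, and cAMP was read by HTRF.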"}, "[9]": {"target": "Beta-2 adrenergic receptor (Homo sapiens) (UniProt P07550)", "test": "Adrenergic beta2 receptor (ADRB2) small molecule antagonists, cell-based qHTS assay (AID 1963592); further: potency means the concentration at half of the fitted maximal effect; nearly all actives have a fitted effect of over 50% in size", "conditions": "CHO-ADRB2 cells, isoproterenol-stimulated cAMP HTRF ratio, 0.5 h; activity change, negative = inhibition: at 92.4 µM (top of the series) unless noted", "in_short": "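Cells (CHO, stable ADRB2 overexpression) incubated 18-20hr at 37C; compounds added from DMSO; agonist mix (1nM isoproterenol, 100uM IBMX, 25uM Ro-20-1724) added; 0.5hr RT; d2-cAMP and anti-cAMP-cryptate added; 1hr RT; 665/615 nm read.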"}, "[10]": {"target": "D(2) dopamine receptor (Homo sapiens) (UniProt P14416)", "test": "Dopamine D2 receptor (DRD2) small molecule agonists, cell-based qHTS assay (AID 1963594); further: potency means the concentration at half of the fitted maximal effect; nearly all actives have a fitted effect of over 35% in size", "conditions": "HEK293-DRD2 cAMP HTRF, agonist mode, 30 min; activation: at 92.4 µM (top of the series) unless noted", "in_short": "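HEK293 cells stably expressing human DRD2, pre-treated with PDE inhibitor Ro20-1724 (0.1 mM final) and compound 10 min at room temperature, then stimulated with NKH477 (200nM […]) for 30 min. cAMP read by HTRF (665/620 nm).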"}, "[11]": {"conditions": "activation: at 92.4 µM (top of the series) unless noted"}, "[12]": {"conditions": "activity change, negative = inhibition: at 92.4 µM (top of the series) unless noted"}}, "note": "Values joined by “and” are separate entries in the source; they are usually repeats but may differ in a detail not shown here. Equal values may be shown once. Inconclusive means that the source gave no clear call. Such entries were picked first, then a sample of the others. Where the call is inconclusive, the potency comes from a doubtful curve fit. Active and inactive are the calls of the source. Unless noted, the call rests on the fitted dose curve."}
{"compound": "COc1ccc2[nH]c(S(=O)Cc3ncc(C)c(OC)c3C)nc2n1", "note": "(stereo not given)", "values": [{"measurement": "Potency", "setting": "[1]", "value": "active: 21.1 µM"}, {"measurement": "Potency", "setting": "[2]", "value": "inconclusive: 5.35 µM [activator, partial curve, poor fit]"}, {"measurement": "Potency", "setting": "[3]", "value": "inconclusive: 7.29 µM [inhibitor, full curve]"}, {"measurement": "Potency", "setting": "[4]", "value": "inconclusive: 33.5 µM [rising, partial curve, poor fit]"}, {"measurement": "Potency", "setting": "[5]; [11]", "value": "inactive"}]}
{"compound": "c1ccc2sc(SN(C3CCCCC3)C3CCCCC3)nc2c1", "values": [{"measurement": "Potency", "setting": "[1]", "value": "inconclusive: 21.4 µM [activator, partial curve]"}, {"measurement": "Potency", "setting": "[2]", "value": "inactive"}, {"measurement": "Potency", "setting": "[5]; [11]", "value": "inactive"}]}
{"compound": "COC(C)(C)OC", "values": [{"measurement": "Potency", "setting": "[1]", "value": "inactive"}, {"measurement": "Potency", "setting": "[6]", "value": "inactive"}, {"measurement": "activation", "setting": "[5]; [11]", "value": "inconclusive: 23.3%"}]}
{"compound": "OCCNCCO", "values": [{"measurement": "Potency", "setting": "[1]", "value": "inconclusive: 68.6 µM [activator, single point]"}, {"measurement": "Potency", "setting": "[6]", "value": "inconclusive: 8.4 µM [inhibitor, partial curve, poor fit]"}, {"measurement": "activation", "setting": "[5]; [11]", "value": "inconclusive: -45.1% and inconclusive: -5.13%"}]}
{"compound": "C/C=C1/C(=O)C[C@H]2[C@@H]3CCC4=CC(=O)CC[C@]4(C)[C@H]3CC[C@]12C", "values": [{"measurement": "Potency", "setting": "[1]", "value": "active: 68.4 µM"}, {"measurement": "Potency", "setting": "[3]", "value": "inconclusive: 59.3 µM [inhibitor, partial curve, poor fit]"}, {"measurement": "Potency", "setting": "[4]", "value": "inconclusive: 24.3 µM [fluorescent, partial curve]"}, {"measurement": "Potency", "setting": "[7]; [12]", "value": "inconclusive: 21.6 µM [fluorescent, partial curve]"}, {"measurement": "Potency", "setting": "[5]; [11]", "value": "inconclusive: 0.432 µM [inhibitor, full curve, poor fit]"}]}
{"compound": "CN1CCCN=C1/C=C/c1cccs1", "values": [{"measurement": "Potency", "setting": "[1]", "value": "inconclusive: 0.0841 µM [activator, partial curve]"}, {"measurement": "Potency", "setting": "[3]", "value": "inactive"}]}
{"compound": "Cc1cccc(OCCOc2cccc(C)c2)c1", "values": [{"measurement": "Potency", "setting": "[1]", "value": "inconclusive: 0.0515 µM [activator, single point]"}, {"measurement": "Potency", "setting": "[4]", "value": "inactive"}, {"measurement": "activity change, negative = inhibition", "setting": "[7]; [12]", "value": "inconclusive: 6.66%"}, {"measurement": "Potency", "setting": "[5]; [11]", "value": "inconclusive: 1.45 µM [inhibitor, single point]"}]}
{"compound": "SCCSCCS", "values": [{"measurement": "Potency", "setting": "[1]", "value": "inactive"}, {"measurement": "Potency", "setting": "[4]", "value": "inactive"}]}
{"compound": "O=C1OC(=O)c2cc([N+](=O)[O-])ccc21", "values": [{"measurement": "Potency", "setting": "[1]", "value": "inactive"}, {"measurement": "Potency", "setting": "[3]", "value": "inconclusive: 23.6 µM [inhibitor, single point]"}, {"measurement": "Potency", "setting": "[5]; [11]", "value": "inactive"}]}
{"compound": "C#C[C@]1(O)CC[C@H]2[C@@H]3CCC4=CC(=O)CC[C@@H]4[C@H]3CC[C@@]21CC", "values": [{"measurement": "Potency", "setting": "[1]", "value": "inconclusive: 68.7 µM [activator, single point] and inconclusive: 68.6 µM [activator, single point]"}, {"measurement": "Potency", "setting": "[4]", "value": "inconclusive: 24.4 µM [fluorescent] and inconclusive: 19.3 µM [fluorescent, partial curve]"}, {"measurement": "activation", "setting": "[4]", "value": "inconclusive: 15.4% [at 42.5 µM]"}, {"measurement": "Potency", "setting": "[7]; [12]", "value": "inconclusive: 19.4 µM [activator, partial curve, poor fit] and inconclusive: 5.08 µM [activator, full curve, poor fit] and inconclusive: 27.3 µM"}, {"measurement": "activity change, negative = inhibition", "setting": "[7]; [12]", "value": "inconclusive: 1.24% [at 42.4 µM]"}, {"measurement": "activation", "setting": "[5]; at 42.5 µM (top of the series)", "value": "inconclusive: 14.1%"}, {"measurement": "activation", "setting": "[5]; at 92.4 µM (top of the series)", "value": "inconclusive: 17.1% and inconclusive: 14.2%"}, {"measurement": "Potency", "setting": "[8]", "value": "inconclusive: 61.1 µM [inhibitor, partial curve]"}]}
{"compound": "CCC(=O)O", "values": [{"measurement": "Potency", "setting": "[1]", "value": "inconclusive: 68.6 µM [activator]"}, {"measurement": "Potency", "setting": "[3]", "value": "inconclusive: 0.0134 µM [inhibitor, full curve, poor fit]"}, {"measurement": "Potency", "setting": "[5]; [11]", "value": "inactive"}]}
{"compound": "CCOC(=O)[C@H](CCc1ccccc1)N[C@@H](C)C(=O)N1Cc2ccccc2C[C@H]1C(=O)O", "values": [{"measurement": "Potency", "setting": "[1]", "value": "inconclusive: 33.5 µM [activator, single point]"}, {"measurement": "Potency", "setting": "[4]", "value": "inconclusive: 61.6 µM [rising, partial curve]"}, {"measurement": "activity change, negative = inhibition", "setting": "[7]; [12]", "value": "inconclusive: 7.37% [at 42.4 µM]"}, {"measurement": "activity change, negative = inhibition", "setting": "[7]; at 92.4 µM (top of the series)", "value": "inactive: -1.1%"}, {"measurement": "Potency", "setting": "[5]; [11]", "value": "inconclusive: 9.76 µM [inhibitor, partial curve]"}]}
{"compound": "CCCCCCCC/C=C\\CCCCCCCC(=O)OCCO", "values": [{"measurement": "Potency", "setting": "[1]", "value": "inconclusive: 102 µM [activator]"}, {"measurement": "Potency", "setting": "[4]", "value": "inconclusive: 57.3 µM [rising, partial curve, poor fit]"}, {"measurement": "activity change, negative = inhibition", "setting": "[7]; [12]", "value": "inconclusive: -0.464%"}, {"measurement": "Potency", "setting": "[5]; [11]", "value": "inactive"}]}
{"compound": "CSCCC=O", "values": [{"measurement": "Potency", "setting": "[1]", "value": "inconclusive: 68.6 µM [activator, single point]"}, {"measurement": "Potency", "setting": "[4]", "value": "inconclusive: 54.5 µM [rising, partial curve, poor fit]"}, {"measurement": "activity change, negative = inhibition", "setting": "[7]; [12]", "value": "inconclusive: 26.7%"}, {"measurement": "activation", "setting": "[5]; [11]", "value": "inconclusive: -34.7%"}, {"measurement": "activation", "setting": "[5]; at 92.4 µM (top of the series)", "value": "inactive: 12.3%"}]}
{"compound": "O=C(O)c1cc(=O)c2c(OCC(O)COc3cccc4oc(C(=O)O)cc(=O)c34)cccc2o1", "values": [{"measurement": "Potency", "setting": "[1]", "value": "inconclusive: 33.5 µM [activator, single point]"}, {"measurement": "Potency", "setting": "[4]", "value": "inactive"}, {"measurement": "Potency", "setting": "[7]; [12]", "value": "inactive"}]}
{"compound": "O=C1c2c(O)ccc(Nc3ccc(CCO)cc3)c2C(=O)c2c([N+](=O)[O-])ccc(O)c21", "values": [{"measurement": "Potency", "setting": "[1]", "value": "active: 30.6 µM"}, {"measurement": "Potency", "setting": "[4]", "value": "inconclusive: 61.1 µM [fluorescent]"}, {"measurement": "Potency", "setting": "[7]; [12]", "value": "inconclusive: 54.5 µM [fluorescent, partial curve]"}, {"measurement": "Potency", "setting": "[9]", "value": "inconclusive: 54.5 µM [falling, partial curve]"}, {"measurement": "Potency", "setting": "[5]; [11]", "value": "inconclusive: 68.6 µM"}, {"measurement": "Potency", "setting": "[10]", "value": "inconclusive: 58.8 µM"}, {"measurement": "Potency", "setting": "[8]", "value": "inconclusive: 61.1 µM [cytotoxic, partial curve]"}]}
